Laboratory results as given in publication PMC13415819.
No constants are given. Whether binding was seen depends on the method and setting. Some results given as binding are weak or reduced against the parent protein; the word gives no strength. Tags and fused reporters may be left off the sequences shown.

Chains of the proteins cited; added tags and fusions are not shown.
UniProt O95817: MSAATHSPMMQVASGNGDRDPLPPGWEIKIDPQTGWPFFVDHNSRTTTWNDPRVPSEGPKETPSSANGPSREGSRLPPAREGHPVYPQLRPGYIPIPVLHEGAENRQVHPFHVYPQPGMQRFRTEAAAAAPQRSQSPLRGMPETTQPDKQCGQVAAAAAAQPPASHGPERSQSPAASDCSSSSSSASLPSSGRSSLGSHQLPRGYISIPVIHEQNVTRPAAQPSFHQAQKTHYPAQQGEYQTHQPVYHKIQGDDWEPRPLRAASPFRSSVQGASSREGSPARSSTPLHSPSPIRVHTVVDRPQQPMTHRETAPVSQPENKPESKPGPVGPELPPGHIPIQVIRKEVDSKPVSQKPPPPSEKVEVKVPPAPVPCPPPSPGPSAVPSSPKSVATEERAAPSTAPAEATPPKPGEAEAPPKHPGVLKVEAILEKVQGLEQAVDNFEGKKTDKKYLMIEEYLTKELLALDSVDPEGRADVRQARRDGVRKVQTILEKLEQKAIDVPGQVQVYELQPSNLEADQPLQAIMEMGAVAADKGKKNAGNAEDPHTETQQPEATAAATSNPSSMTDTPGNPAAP

Target: BAG3 (HIS-fusion protein) (UniProt O95817)
Assay: pull-down; 1 µM HIS-BAG3 on Ni-NTA-agarose, 1.5 µM MBP-PDLIM3/MBP preparation; 20 mM MOPS pH 7.2, 100 mM KCl, 40 mM imidazol; 1 h on ice; eluted with 200 mM imidazol; SDS-PAGE and immunoblotting; both purified

binding: binds
B1: MBP-PDLIM3 (protein, UniProt Q53GG5 1-364)
chain: MPQTVILPGPAPWGFRLSGGIDFNQPLVITRITPGSKAAAANLCPGDVILAIDGFGTESMTHADAQDRIKAAAHQLCLKIDRGETHLWSPQVSEDGKAHPFKINLESEPQDGNYFEHKHNIRPKPFVIPGRSSGCSTPSGIDCGSGRSTPSSVSTVSTICPGDLKVAAKLAPNIPLEMELPGVKIVHAQFNTPMQLYSDDNIMETLQGQVSTALGETPLMSEPTASVPPESDVYRMLHDNRNEPTQPRQSGSFRVLQGMVDDGSDDRPAGTRSVRAPVTKVHGGSGGAQRMPLCDKCGSGIVGAVVKARDKYRHPECFVCADCNLNLKQKGYFFIEGELYCETHARARTKPPEGYDTVTLYPKA
